The values below come from article doi:10.1101/2021.01.27.428547.

By UniProt entry, the sequences of proteins in these tests, tags left out. Where a name states a change or a piece, a line headed by the entry shows the natural chain unless it says otherwise.
UniProt Q9FKZ2: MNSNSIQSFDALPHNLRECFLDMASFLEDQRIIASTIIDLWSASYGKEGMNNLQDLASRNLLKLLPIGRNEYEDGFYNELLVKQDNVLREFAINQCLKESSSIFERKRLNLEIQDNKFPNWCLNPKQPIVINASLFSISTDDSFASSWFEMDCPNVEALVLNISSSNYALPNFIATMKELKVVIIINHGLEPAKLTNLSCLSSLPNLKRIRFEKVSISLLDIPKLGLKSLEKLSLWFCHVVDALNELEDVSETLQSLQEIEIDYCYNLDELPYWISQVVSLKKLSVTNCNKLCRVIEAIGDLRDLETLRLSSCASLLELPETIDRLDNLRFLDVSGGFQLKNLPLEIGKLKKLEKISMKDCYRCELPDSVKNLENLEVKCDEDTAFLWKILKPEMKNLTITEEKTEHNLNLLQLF
UniProt Q9SU72: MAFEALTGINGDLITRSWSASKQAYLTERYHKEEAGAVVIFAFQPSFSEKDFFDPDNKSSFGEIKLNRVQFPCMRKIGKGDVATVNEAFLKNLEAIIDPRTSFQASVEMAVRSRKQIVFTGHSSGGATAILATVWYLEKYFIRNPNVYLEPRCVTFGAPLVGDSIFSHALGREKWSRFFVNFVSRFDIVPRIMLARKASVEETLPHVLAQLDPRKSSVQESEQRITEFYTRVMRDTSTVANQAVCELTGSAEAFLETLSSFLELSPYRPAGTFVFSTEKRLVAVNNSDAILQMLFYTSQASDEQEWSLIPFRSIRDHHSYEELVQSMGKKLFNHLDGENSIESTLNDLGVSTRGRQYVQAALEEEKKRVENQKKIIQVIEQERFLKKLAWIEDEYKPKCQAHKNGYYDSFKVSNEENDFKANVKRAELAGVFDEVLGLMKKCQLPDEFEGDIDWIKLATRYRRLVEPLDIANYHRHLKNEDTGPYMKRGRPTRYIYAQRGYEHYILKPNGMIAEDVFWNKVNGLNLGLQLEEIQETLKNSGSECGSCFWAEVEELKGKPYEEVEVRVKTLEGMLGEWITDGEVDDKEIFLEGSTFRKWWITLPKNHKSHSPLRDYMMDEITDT
UniProt Q4F883: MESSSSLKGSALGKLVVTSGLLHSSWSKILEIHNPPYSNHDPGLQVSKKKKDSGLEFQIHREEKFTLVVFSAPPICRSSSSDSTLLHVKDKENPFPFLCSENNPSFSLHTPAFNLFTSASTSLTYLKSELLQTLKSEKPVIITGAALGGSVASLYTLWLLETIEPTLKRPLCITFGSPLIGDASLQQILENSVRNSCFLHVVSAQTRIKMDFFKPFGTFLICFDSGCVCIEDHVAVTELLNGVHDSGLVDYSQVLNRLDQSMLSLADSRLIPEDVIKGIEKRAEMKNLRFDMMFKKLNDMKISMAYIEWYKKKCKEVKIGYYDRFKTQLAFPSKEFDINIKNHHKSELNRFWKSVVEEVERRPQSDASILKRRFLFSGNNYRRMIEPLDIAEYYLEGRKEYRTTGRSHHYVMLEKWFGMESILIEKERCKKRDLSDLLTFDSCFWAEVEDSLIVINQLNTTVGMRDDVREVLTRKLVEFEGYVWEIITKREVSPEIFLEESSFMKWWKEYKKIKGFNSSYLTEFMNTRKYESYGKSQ

Like-named read-outs stand apart in the source and are kept apart here. Results are given in words; binding and its absence hold for the method and conditions named. In cells and extracts the contact can be indirect. A yes stands for co-enrichment or nearness to the bait. Other partners may have been found. For some of these results: No binding means not detected with the bait. For some of these results: Sequences can lack the tags named with a protein.

Test in all cases: proximity labelling
Assay [1] addresses NRG1C-HA-TurboID (A. thaliana) (UniProt Q9FKZ2).
For assay [2], the target named is EDS1-HA-TurboID (A. thaliana) (UniProt Q9SU72).
Assay [3] shares this target. The source holds these as a separate data set.

For the molecule “EDS1 (endogenous, A. thaliana) (from UniProt Q9SU72)”, the binding result in assay [1] is listed as “no binding”. For the molecule “SAG101-3FLAG (in A. thaliana) (from UniProt Q4F883)”, the binding entry in assay [1] is on record as “binds”. For the molecule “SAG101-3FLAG (in N. benthamiana) (from UniProt Q4F883)”, the binding result in assay [2] is “binds”.

B1: PAD4-ZZ-TEV-FLAG (protein, UniProt Q9S745 1-541)
chain: MDDCRFETSELQASVMISTPLFTDSWSSCNTANCNGSIKIHDIAGITYVAIPAVSMIQLGNLVGLPVTGDVLFPGLSSDEPLPMVDAAILKLFLQLKIKEGLELELLGKKLVVITGHSTGGALAAFTALWLLSQSSPPSFRVFCITFGSPLLGNQSLSTSISRSRLAHNFCHVVSIHDLVPRSSNEQFWPFGTYLFCSDKGGVCLDNAGSVRLMFNILNTTATQNTEEHQRYGHYVFTLSHMFLKSRSFLGGSIPDNSYQAGVALAVEALGFSNDDTSGVLVKECIETATRIVRAPILRSAELANELASVLPARLEIQWYKDRCDASEEQLGYYDFFKRYSLKRDFKVNMSRIRLAKFWDTVIKMVETNELPFDFHLGKKWIYASQFYQLLAEPLDIANFYKNRDIKTGGHYLEGNRPKRYEVIDKWQKGVKVPEECVRSRYASTTQDTCFWAKLEQAKEWLDEARKESSDPQRRSLLREKIVPFESYANTLVTKKEVSLDVKAKNSSYSVWEANLKEFKCKMGYENEIEMVVDESDAMET
Take B1: in assay [3], the binding entry is “binds”.
